This experiment concerns Salmonella enterica serovar Typhimurium SL1344. Briefly: bacterial growth OD600 after 18 h with compound and polymyxin B; higher = more bacterial growth (less inhibition). As to conditions: 50 µM, Mueller-Hinton broth.

This note sets out measurements from the supplement of paper PMC12889115.

This is one part of the list. Values are raw readings; no control value is given beside them.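 Primary screen: polymyxin B was added at a level permeabilizing Salmonella outer membranes while sparing inner membranes. DMSO wells, both with and without polymyxin B, established maximum growth. Plate-to-plate variation meant each plate was ranked on its own, and the lowest-OD600 compounds were selected as hits.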

As for `CSCCCN1CCCC(C(=O)Nc2ccc(-c3cscn3)cc2)C1` (stereo unspecified), the “bacterial growth OD600” value (polymyxin B 0.75 µg/mL) was 0.871.
On the same count and under the same terms, as for `O=C(NCC1CCCN(C(=O)CCc2cn[nH]c2)C1)c1ccc(-c2ccccc2)cc1` (stereo unspecified), the figure is 0.749.
Consider `O=C(CCC1CCCN(C(=O)c2ccc3c(c2)OCO3)C1)NCc1ccccc1Cl` (stereo unspecified), for which, where the note is “polymyxin B 1 µg/mL”, the “bacterial growth OD600” value worked out at 0.779.
As for `CC(=O)N1CCC(Oc2ccc(Cl)cc2C(=O)N[C@H]2CC[C@H](O)CC2)CC1`, the “bacterial growth OD600” value (polymyxin B 1 µg/mL) was 0.957.
Take `O=C(NCCC1=CCCCC1)C1CCC(=O)N(Cc2ccccn2)C1` (stereo unspecified): the “bacterial growth OD600” value (polymyxin B 1 µg/mL) turned out to be 0.793.
On the same count and under the same terms, the value for `Cc1cccc(-n2cc(CN(C)Cc3nonc3C)c(-c3cccc(F)c3)n2)c1` was 0.785; that for `COC(=O)C1CCN(CC2(O)CCCN(Cc3ccc(F)cc3)C2=O)CC1` (stereo unspecified) was 0.948; that for `COc1ccc(NC(=O)CCC2CCCN(C(=O)COc3ccc(C)cc3)C2)c(C)c1` (stereo unspecified) was 0.915.
Still for that read-out and setting: the value for `COc1ccc(CC(=O)NCC2CCCN(C(=O)Cc3n[nH]c4ccccc34)C2)cc1` (stereo unspecified) was 0.924; that for `CCOC(=O)C1(CCOc2ccccc2)CCN(Cc2ccccc2)CC1` was 0.787.
Regarding `O=C1CCC(C(=O)N2CCN(C3CCCCC3)C(=O)C2)CN1Cc1ccccn1` (stereo unspecified), where the note is “polymyxin B 1 µg/mL”, the “bacterial growth OD600” value worked out at 0.874.
Still for that read-out and setting: as for `c1ccc(-c2ncc(CNc3nc4nonc4nc3N3CCOCC3)s2)cc1`, the figure is 0.945; as for `COc1ccc(OC2CCN(C(=O)C3CC3)CC2)c(C(=O)NCCCOC(C)C)c1`, 0.863.
Consider `CC(=O)N1CCN(c2ncccc2CNC(=O)c2ccc(Cl)s2)CC1`, for which the “bacterial growth OD600” value (polymyxin B 0.75 µg/mL) was 0.782.
As to `COc1ccc(CN2CCN(Cc3ccc(F)c(F)c3)CC2CCO)c(C)c1C` (stereo unspecified), where the note is “polymyxin B 1 µg/mL”, the “bacterial growth OD600” value came to 0.834.
Take `COc1ccc2cc(C(=O)C3CCCN(C(=O)c4cscn4)C3)ccc2c1` (stereo unspecified): where the note is “polymyxin B 1 µg/mL”, the “bacterial growth OD600” value turned out to be 0.863.
Take `O=C(c1ccccc1OC1CCN(Cc2cc3ccccc3o2)CC1)N1CCCCC1`: the “bacterial growth OD600” value (polymyxin B 1 µg/mL) is 0.896.
Regarding `O=C(CCn1cncn1)N1CCCC(CCc2ccccc2C(F)(F)F)C1` (stereo unspecified), for the setting “polymyxin B 0.75 µg/mL”, the “bacterial growth OD600” value worked out at 0.286.
As to `CSc1ccccc1C(=O)NC1CC(=O)N(Cc2cccc(F)c2)C1` (stereo unspecified), the “bacterial growth OD600” value (polymyxin B 1 µg/mL) amounted to 0.946.
Turning to `Cc1cccc(CNC(=O)C2CC23CCN(C(=O)c2ccc(-c4ccccc4F)cc2)CC3)n1` (stereo unspecified), the “bacterial growth OD600” value (polymyxin B 0.75 µg/mL) is 0.155.
`COc1ccc(-c2nn(-c3ccccc3C)cc2CN2CCCN(C(C)=O)CC2)cc1F`: for the setting “polymyxin B 1 µg/mL”, the “bacterial growth OD600” value amounted to 0.689.
The same measure, in the same setting: as for `Cc1c(CC(=O)N[C@H](C(N)=O)C(C)C)c2c(n1Cc1ccccc1)CCCC2=O`, the figure is 1.11.
On to `COCCCNc1nc2nonc2nc1NC1CC1`, for which the “bacterial growth OD600” value (polymyxin B 0.75 µg/mL) stood at 0.811.
As to `CCOC(=O)C1(CCOc2ccccc2)CCN(Cc2cnn(C(C)C)c2)CC1`, the “bacterial growth OD600” value (polymyxin B 1 µg/mL) was 0.961.
Consider `CC(=O)c1cccc(OCc2cc(C(=O)N(C)CCc3nc4ccccc4[nH]3)no2)c1`, for which the “bacterial growth OD600” value (polymyxin B 0.75 µg/mL) was determined as 0.833.
With `CCN(CC)C(=O)C1CCCN(Cc2ccc3c(c2)CN(Cc2ccc(OC)c(O)c2)CCO3)C1` (stereo unspecified), the “bacterial growth OD600” value (polymyxin B 0.75 µg/mL) amounted to 0.769.
Same read-out and setting: as for `COCCN1C(=O)CC(CC(=O)N2CCCC2c2ccc(F)cc2)(c2ccccc2OC)C1=O` (stereo unspecified), the figure is 0.802.
In the case of `O=C(NCc1ccc(F)cc1F)C1CCCN(C2CCN(C(=O)C3CC3)CC2)C1` (stereo unspecified), the “bacterial growth OD600” value (polymyxin B 1 µg/mL) was 0.878.
Regarding `CN(Cc1cccs1)C(=O)c1cc(COc2ccc(F)cc2F)[nH]n1`, where the note is “polymyxin B 0.75 µg/mL”, the “bacterial growth OD600” value was 0.465.
With `O[C@@H]1CN(C/C=C/c2ccccc2)CC[C@H]1N1CCN(c2ccccc2F)CC1`, the “bacterial growth OD600” value (polymyxin B 1 µg/mL) came to 0.902.
Regarding `CC(C)c1cc(C(=O)NCCN2Cc3ccccc3OC(c3ccccc3)C2)n(C)n1` (stereo unspecified), the “bacterial growth OD600” value (polymyxin B 0.75 µg/mL) is 0.931.
